Among all 320,000 compounds or so, about 22,000 (6.9%) were called active. Inconclusive means that the source gave no clear call. Such entries were picked first, then a sample of the others. Calls follow the shape of the dose curve; as a rule, active = well fitted inhibition curve with a large enough effect; inconclusive = small, poorly fitted or top-dose-only effect, or another doubt; inactive = no such curve, though single readings can be large or run the other way. Potencies of inconclusive entries are doubtful fits and often do not repeat.
assay: Primary qHTS for delayed death inhibitors of the malarial parasite plastid, 96 hour incubation; conditions: P. falciparum luciferase reporter growth; series mostly up to 28.7 µM
Procedure, shortened: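 Readout is luminescence from an integrated firefly luciferase in P. falciparum. Red cells, 2% hematocrit and 0.05% parasitemia final, were cultured with compound through two parasite generations (96 hours) at 37 C, 5% CO2.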
Potency is read from the fitted curve at half-maximal effect.

Compound | Potency
CC(=O)c1ccc(OCc2cc(C(=O)NCCn3nc(C)cc3C)no2)cc1 | inconclusive: 16.5 µM [inhibitor, single point]
O=c1c2ccccc2nc(/C=C/c2ccc(Br)cc2)n1CCCO | inactive
COc1ccc(-c2c(C)nc(N)nc2-c2ccc(OC)cc2O)cc1 | inconclusive: 13.1 µM [inhibitor, single point]
NCC12CC3CC(C1)CC(c1ccc(Br)cc1)(C3)C2 | inactive
COC(=O)C1CCN(C(=O)COc2ccc(Cl)cc2)CC1 | inconclusive: 10.4 µM [inhibitor, single point]
CCOC(=O)c1c(-c2ccc(OC)cc2)csc1NC(=O)CSc1ccccc1 | active: 13.1 µM
c1ccc(CC[C@@H]2CC[C@@H](CCc3ccccc3)N2)cc1 | inconclusive: 5.22 µM [inhibitor, single point]
N/C(Cc1cccc2ccccc12)=N\OC(=O)c1ccccc1F | inconclusive: 18.5 µM [inhibitor, single point]
COC(=O)c1sccc1NC(=O)CC1C(=O)NCCN1C(=O)c1ccc(N(C)C)cc1 (stereo not given) | inconclusive: 6.57 µM [inhibitor, partial curve]
CCn1c(SCC(=O)OC2CCCCC2)nnc1-c1ccncc1 | inconclusive: 1.65 µM [inhibitor, full curve, poor fit]
CC[C@H](C)[C@@H](C(=O)NCCCCCCCCCCC(=O)N1CCNCC1)n1cc(CCCCCN)nn1 | inconclusive: 10.4 µM [inhibitor, single point]
CCCC(=O)N1CCN(c2nc(CC(C)C)c3c(c2C#N)CCC3)CC1 | inactive
COc1ccc(OCC(=O)NNC(=S)NC(=O)c2ccc(Br)o2)cc1 | inactive
CCOc1ccc2nc(NC3=NC(C)(C)C=C(C)N3)nc(C)c2c1 | inconclusive: 18.5 µM [inhibitor, single point]
CNC(=S)N/N=C(\C)c1ccccc1 | inconclusive: 13.1 µM [inhibitor, single point]
CCCCCC(=O)Nc1nnc(CCc2ccccc2)s1 | inconclusive: 18.5 µM [inhibitor, single point]
CCN(Cc1ccccc1)S(=O)(=O)c1ccc2c(c1)NC(=O)CC(=O)N2 | inactive
CCOC(=O)c1sc(NC(=O)CC(C)c2ccccc2)nc1C (stereo not given) | inactive
O=C(NC1CCCCCC1)C1CCCN(S(=O)(=O)c2cnc[nH]2)C1 (stereo not given) | inconclusive: 8.28 µM [inhibitor, single point]

Part of the list above, set out differently.
Compound	Potency
COc1ccc(-c2c(C)nc(N)nc2-c2ccc(OC)cc2O)cc1	inconclusive: 13.1 µM [inhibitor, single point]
NCC12CC3CC(C1)CC(c1ccc(Br)cc1)(C3)C2	inactive
COC(=O)C1CCN(C(=O)COc2ccc(Cl)cc2)CC1	inconclusive: 10.4 µM [inhibitor, single point]
CCOC(=O)c1c(-c2ccc(OC)cc2)csc1NC(=O)CSc1ccccc1	active: 13.1 µM
c1ccc(CC[C@@H]2CC[C@@H](CCc3ccccc3)N2)cc1	inconclusive: 5.22 µM [inhibitor, single point]

From PubChem BioAssay AID504834 (National Center for Advancing Translational Sciences (NCATS), 2011)
